Experimental data: PubChem BioAssay AID686943 (Drosophila RNAi Screening Center, 2013)

- Test: 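Knockdowns that increase or decrease active ERK after insulin receptor stimulation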 (primary screen)
- Cell system: Drosophila S2R+ haemocyte-like cells expressing YFP-tagged ERK (Rolled)
- Knock-down reagent: long dsRNA against Drosophila genes
- Treatment: insulin stimulation versus unstimulated cells; dose and duration not given
- Read-out: 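Antibody staining for doubly phosphorylated ERK divided by ERK-YFP signal, as plate z-scores, in insulin-treated and untreated cells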
- Reading the numbers: replicate 1, z-score of dpERK with insulin and replicate 2, z-score of dpERK with insulin: higher = more active ERK per ERK-YFP after insulin; replicate 1, z-score of dpERK under basal conditions: higher = more basal active ERK per ERK-YFP; replicate 1, z-score of ERK-YFP with insulin: higher = more YFP-tagged ERK signal
The screen tested about 23,000 reagents; this is a random part of those with a known target gene and a result. 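Extra replicates exist only for a retested subset of genes; insulin dose and duration not given; both raised and lowered dpERK matter.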 The numbers tell different reagents against one gene apart. A plus sign joins genes that one reagent is predicted to hit. Not given: the amount of reagent, the time to read-out.

| gene | reagent no. | replicate 1, z-score of dpERK with insulin | replicate 2, z-score of dpERK with insulin | replicate 1, z-score of dpERK under basal conditions | replicate 1, z-score of ERK-YFP with insulin |
| --- | --- | --- | --- | --- | --- |
| AGO1 | 1 | 3.77 | 1.06 | -2.26 | -5.4 |
| sNPF | 1 | -0.47 | -0.8 | 1.71 | 0.79 |
| CG9743 | 1 | -1.05 | 0 | 1.17 | 0.9 |
| Mkk4 | 1 | 0.35 | 0.58 | -0.08 | -0.58 |
| lectin-29Ca | 1 | 0.1 | -0.02 | -0.39 | -0.06 |
| CG12395 | 1 | -0.22 | 0.09 | 0.66 | -0.25 |
| CG33108 | 1 | -1.47 | 0.1 | 0.24 | 0.23 |
| Rbbp5 + CG6434 (retired record) | 1 | 0.35 | 0.41 | -0.36 | 0.49 |
| gnu | 1 | -0.58 | -0.95 | 0.56 | -0.39 |
| CG10494 | 1 | 0.07 | 0.8 | 0.87 | 0.39 |
| CG7149 | 1 | 0.17 | 0.27 | 0.52 | 0.83 |
| CG5089 | 1 | 0.18 | 0.25 | -0.13 | -0.02 |
| Hsepi | 1 | 0.83 | -0.35 | -0.34 | -0.17 |
| Nmnat | 1 | 1.16 | -0.2 | 0.66 | 0.29 |
| CG13857 | 1 | 0.38 | 0.38 | -0.31 | 0.13 |
| CG6688 | 1 | 0.06 | -0.3 | 0.31 | 0.26 |
| CG9304 | 1 | -0.88 | -0.44 | 0.7 | -0.19 |
| IntS11 | 1 | 0.47 | -0.09 | -0.36 | -1.19 |
| DNAlig3 | 1 | 0.38 | 0.7 | -0.39 | 0.19 |
| CG43292 | 1 | 0.24 | 0.08 | -0.09 | -0.25 |
| CG43292 | 2 | 0.29 | 0.92 | 0.09 | 0.44 |
| ND-75 | 1 | -0.28 | -0.23 | 0.01 | 0.51 |
| Ugt35B1 | 1 | 0.12 | 0.31 | -0.1 | 0.44 |
| CG6951 | 1 | -0.15 | 0.07 | 0.58 | 1.22 |
| brun | 1 | -0.71 | -0.94 | -1.57 | 0.55 |
| CG8916 | 1 | 0.22 | -0.58 | -0.57 | -0.06 |
| NetB | 1 | 0.14 | 0.31 | -0.4 | 0.13 |
| tfc | 1 | -0.33 | -0.64 | 0.04 | 0.22 |
| tfc | 2 | -0.68 | -0.3 | -0.57 | 0.43 |
| tfc | 3 | 0.5 | -0.25 | 0.11 | -0.22 |
| tfc | 4 | 0 | -0.1 | -0.21 | 0.64 |
| CG8630 | 1 | 0.52 | 0.16 | 1.67 | -1.26 |
| eIF4G2 | 1 | 0.41 | 0.06 | -0.33 | 1.24 |
| eIF4G2 | 2 | 0.94 | -2.16 | -0.28 | 0.01 |
| CG33144 | 1 | -0.17 | 1.32 | 0.91 | 0.66 |
| CG33144 | 2 | -0.52 | -0.63 | -0.21 | -0.06 |
| CG4860 | 1 | 0.32 | 0.75 | -0.09 | -0.11 |
| CG4860 | 2 | 0.91 | 0.93 | -0.75 | -1.62 |
| Mettl3 | 1 | 0.01 | 0.08 | -0.31 | 0.88 |
| CG32161 | 1 | -0.61 | -1.99 | -0.82 | -1.77 |
| CG33491 (retired record) + CG33496 (retired record) + CG33487 (retired record) + 1 more | 1 | 0.39 | 0.16 | 0.64 | 0.57 |
| Ugt35E1 | 1 | 0.12 | 0.29 | 0.34 | 0.06 |
| CG4281 | 1 | -0.1 | 0.24 | -0.72 | 0.39 |
| CG15715 | 1 | 0.41 | 0.3 | 0.58 | 0.22 |
| CG16789 | 1 | 0.25 | 0.73 | -0.29 | 0.05 |
| eIF3d1 | 1 | -2.37 | 0 | -0.97 | -1.94 |
| CG12910 | 1 | 0.86 | 0.31 | -0.56 | 0.23 |
| CG32081 | 1 | 0.5 | 0.47 | 0.01 | 0.05 |
| CG9568 | 1 | -0.44 | -1.7 | -0.47 | 0.59 |
| Naam | 1 | 0.47 | 0 | 0.31 | -0.27 |
| CG12869 | 1 | 0.53 | 0.67 | -0.17 | -0.37 |
| l(2)k05911 | 1 | 0.09 | -0.27 | -0.3 | 0.4 |
| Kal1 | 1 | 0.41 | -0.71 | -0.69 | -0.28 |
| CG31633 | 1 | 0.21 | 0.46 | 1.91 | 0.57 |
| Hs3st-B | 1 | -0.28 | 0.55 | -0.2 | 0.37 |
| inv | 1 | -0.24 | -0.52 | -0.68 | -0.19 |
| Ugt302E1 | 1 | -0.13 | -0.4 | 0.25 | 0.22 |
